Assay results from US20130331333A1 (HADASIT MEDICAL RESEARCH SERVICES AND DEVELOPMENT, published 2013).
No constants are given. Whether binding was seen depends on the method and setting. For some assays here: Tags and fused reporters may be left off the sequences shown. Each block holds one binder with its values, some of them ahead of it.

Experiments:
[1] = molecular target: truncated form of hPar2 (human); test: Etk/Bmx expressing cell lysates and GST-PAR2 C-tails
[2] = molecular target: hPar2 mutant K352A (human); test: HEK-293T lysates on PH-Etk/Bmx

binding [1]: no binding
B1: Etk/Bmx (epithelial tyrosine kinase), wild type (enzyme, UniProt P51813 1-675, looked up)
chain: MDTKSILEELLLKRSQQKKKMSPNNYKERLFVLTKTNLSYYEYDKMKRGSRKGSIEIKKIRCVEKVNLEEQTPVERQYPFQIVYKDGLLYVYASNEESRSQWLKALQKEIRGNPHLLVKYHSGFFVDGKFLCCQQSCKAAPGCTLWEAYANLHTAVNEEKHRVPTFPDRVLKIPRAVPVLKMDAPSSSTTLAQYDNESKKNYGSQPPSSSTSLAQYDSNSKKIYGSQPNFNMQYIPREDFPDWWQVRKLKSSSSSEDVASSNQKERNVNHTTSKISWEFPESSSSEEEENLDDYDWFAGNISRSQSEQLLRQKGKEGAFMVRNSSQVGMYTVSLFSKAVNDKKGTVKHYHVHTNAENKLYLAENYCFDSIPKLIHYHQHNSAGMITRLRHPVSTKANKVPDSVSLGNGIWELKREEITLLKELGSGQFGVVQLGKWKGQYDVAVKMIKEGSMSEDEFFQEAQTMMKLSHPKLVKFYGVCSKEYPIYIVTEYISNGCLLNYLRSHGKGLEPSQLLEMCYDVCEGMAFLESHQFIHRDLAARNCLVDRDLCVKVSDFGMTRYVLDDQYVSSVGTKFPVKWSAPEVFHYFKYSSKSDVWAFGILMWEVFSLGKQPYDLYDNSQVVLKVSQGHRLYRPHLASDTIYQIMYSCWHELPEKRPTFQQLLSSIEPLREKDKH

binding [2]: no binding
B2: GST-PH-Etk/Bmx (other, UniProt P51813 1-111, looked up)
chain: MDTKSILEELLLKRSQQKKKMSPNNYKERLFVLTKTNLSYYEYDKMKRGSRKGSIEIKKIRCVEKVNLEEQTPVERQYPFQIVYKDGLLYVYASNEESRSQWLKALQKEIR
notes: domain: PH domain; Made as in Chen et al. 2001; also called GST-Etk-PH; GST-Etk/Bmx; not shown: GST tag
